Experiment: Permeability and efflux ratio in Caco-2 cells
Assay type: in vitro ADME
Conditions: human
Description: Human colon carcinoma (Caco-2) cells, which were obtained from Military Medical Research Institute, were maintained in Dulbecco’s modified Eagle’s medium. Caco-2 cells were seeded onto […] (PET) in 96-well Falcon insert systems at 2 × 10^5 cells/cm^2 for 21–28 days for confluent cell monolayer formation. […] Test compounds were diluted with the transport buffer (HBSS without BSA) from a 10 mM stock solution to a concentration of 10 µM and applied to the apical or basolateral side of the cell monolayer. Permeation of the test compounds in the direction from A to B or from B to A was determined in duplicate over a 120-min incubation at 37 °C and 5% CO2 with a relative humidity of 95%. In addition, the efflux ratio of each compound was also determined. Test and reference compounds were quantified by LC-MS/MS analysis based on the peak area ratio of analyte/IS. The apparent permeability coefficient Papp (cm/s) was calculated using the following equation:Papp = (dCr/dt) × Vr/(A × C0) where dCr/dt is the cumulative concentration of the compound in the receiver chamber as a function of time (S); Vr is the solution volume in the receiver chamber (0.1 mL on the apical side, 0.25 mL on the basolateral side); A is the surface area for the transport, i.e., 0.0804 cm^2 for the area of the monolayer; C0 is the initial concentration in the donor chamber. […]

- recovery at 120 min, 10 µM (Caco-2, Caco-2, 10 µM, 120 min, read-out: Mean Recovery % A to B): 90.9%
- Papp A→B at 120 min, 10 µM (Caco-2, 10 µM, 120-min incubation, 37 °C): 0.73 ×10⁻⁶ cm/s
SMILES: CC(C)NCC(O)COc1ccc(CC(N)=O)cc1 (centres unmarked) [Atenolol]
